Results on 1 molecule are retold here after PMC11749260.

Results are given in words; binding and its absence hold for the method and conditions named. Binding seen in cells or lysates may run through a third protein. A yes stands for co-enrichment or nearness to the bait. Other partners may have been found. Sequences can lack the tags named with a protein.

This assay deals with T1, Flag-tagged Sugt1 (suppressor of G2 allele of SKP1 homolog) (UniProt Q9CX34).
T1 sequence: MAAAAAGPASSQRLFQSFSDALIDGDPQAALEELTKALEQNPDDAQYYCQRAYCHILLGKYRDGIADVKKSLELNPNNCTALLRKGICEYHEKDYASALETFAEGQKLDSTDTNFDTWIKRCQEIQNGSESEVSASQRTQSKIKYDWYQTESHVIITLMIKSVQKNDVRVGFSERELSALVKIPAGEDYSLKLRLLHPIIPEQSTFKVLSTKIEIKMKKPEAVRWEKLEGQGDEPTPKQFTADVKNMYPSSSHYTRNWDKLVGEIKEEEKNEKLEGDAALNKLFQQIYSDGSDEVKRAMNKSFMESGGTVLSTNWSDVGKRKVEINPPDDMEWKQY
Put plainly: affinity purification with mass spectrometry; Flag-Sugt1 overexpressed in C2C12 myoblasts, IP with anti-Flag magnetic beads, retrieved proteins analysed by LC/MS; cells with empty pcDNA3.1(+) vector as negative control.

B1: Trim21 (E3 ubiquitin-protein ligase) (protein, UniProt Q62191 1-470)
chain: MSPSTTSKMSLEKMWEEVTCSICLDPMVEPMSIECGHCFCKECIFEVGKNGGSSCPECRQQFLLRNLRPNRHIANMVENLKQIAQNTKKSTQETHCMKHGEKLHLFCEEDGQALCWVCAQSGKHRDHTRVPIEEAAKVYQEKIHVVLEKLRKGKELAEKMEMDLTMQRTDWKRNIDTQKSRIHAEFALQNSLLAQEEQRQLQRLEKDQREYLRLLGKKEAELAEKNQALQELISELERRIRGSELELLQEVRIILERSGSWNLDTLDIDAPDLTSTCPVPGRKKMLRTCWVHITLDRNTANSWLIISKDRRQVRMGDTHQNVSDNKERFSNYPMVLGAQRFSSGKMYWEVDVTQKEAWDLGVCRDSVQRKGQFSLSPENGFWTIWLWQDSYEAGTSPQTTLHIQVPPCQIGIFVDYEAGVVSFYNITDHGSLIYTFSECVFAGPLRPFFNVGFNYSGGNAAPLKLCPLKM
For the molecule B1, the binding entry is on record as “binds”.
